Experimental findings from publication PMC7819943, “Rice protein-binding microarrays: a tool to detect cis-acting elements near promoter regions in rice” are described below.

Chains of the proteins cited; added tags and fusions are not shown.
UniProt Q0JBA9, entry or part of it: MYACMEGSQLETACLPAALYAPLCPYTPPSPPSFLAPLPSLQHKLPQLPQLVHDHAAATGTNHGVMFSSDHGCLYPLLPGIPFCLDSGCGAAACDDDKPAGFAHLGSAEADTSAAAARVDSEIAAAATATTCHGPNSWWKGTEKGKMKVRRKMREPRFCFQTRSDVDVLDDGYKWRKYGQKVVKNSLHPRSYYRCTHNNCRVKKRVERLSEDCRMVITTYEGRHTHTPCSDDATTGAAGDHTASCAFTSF

This is one part of the list.

This assay addresses OsWRKY34 (Oryza sativa, UniProt Q0JBA9 1-250). The experiment in a line: protein-binding microarray (RPBM); PBS, 2% BSA, 51.3 ng/ul salmon testes DNA, 50 uM zinc acetate, 200 nM TF, 25 C, 1 h; high values mean tight binding. The following applies: protein: recombinant; tags: N-terminal polyhistidine and DsRed monomer fusion (pET32a); label: CyDye5-dUTP incorporated in the synthesized complementary strand; 3' TTTTT single-stranded linker to array surface; dsDNA, one strand shown. In outline:
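Per-feature fluorescence intensity (arbitrary units), read on an Axon 4000B scanner, is the binding signal. Transcription factors carrying an N-terminal polyhistidine tag and DsRed fusion were expressed in E. coli BL21-CodonPlus and purified on Ni–NTA. A custom Agilent array, made double-stranded by primer extension with Cy5-dUTP and blocked with 2% BSA, was incubated with 200 nM protein in PBS, 2% BSA, salmon testes DNA and 50 µM zinc acetate at 25 °C for 1 h and then washed.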
On to “TGATGCCCCGACCTGTAAAACAACATCTGACCACTACACACGGAGTCACCTAGTGCAG”, for which the binding signal is 8120 fluorescence intensity (a.u.). The value for “AAATTTTTATATTATGGACATCATCTATTCATGTTGTTTACGGAGTCACCTAGTGCAG” was 9260 fluorescence intensity (a.u.); that for “CTTAATTCCTGCATGCGCACACGGTTACCAATACGCACTTCGGAGTCACCTAGTGCAG” was 11700 fluorescence intensity (a.u.); that for “GCATTGCTGGTTGGGGTTCGCCTTTCTATGACCGGAGACTCGGAGTCACCTAGTGCAG” was 14400 fluorescence intensity (a.u.). In the case of “AGTCCTGGTATTTGTTGTGTATGTTATCATGTATTCACCGCGGAGTCACCTAGTGCAG”, the binding signal is 8730 fluorescence intensity (a.u.).

As for “CGATCAATTTCCTGGCCCAAACTAGTTTGATGTGTGGTTTCGGAGTCACCTAGTGCAG”, the binding signal is 8580 fluorescence intensity (a.u.).

Turning to “CTTCGCTGTCGACGTCCCTCACCCGCCGCTGCCGCCGTGGCGGAGTCACCTAGTGCAG”, the binding signal is 8310 fluorescence intensity (a.u.). Take “TCCCACTCAGCTGTCCGTCCGCCAATCACTGTACTTCTATCGGAGTCACCTAGTGCAG”: the binding signal was 22000 fluorescence intensity (a.u.). Turning to “ACTTTTACCATGGTTTACATTTCGTGTCACATATAATCTTCGGAGTCACCTAGTGCAG”, the binding signal is 10600 fluorescence intensity (a.u.). As to “TGATATATTTTAACCATTAACGTATTCCATATTATGTTTTCGGAGTCACCTAGTGCAG”, the binding signal is 9400 fluorescence intensity (a.u.). With “CCATCTGTCATATTTGTCATCGTTGACTTTTTTAAATATACGGAGTCACCTAGTGCAG”, the binding signal is 13600 fluorescence intensity (a.u.).

Regarding “GAGTTTGAATTCCATTCTCCACTCAATATAGGCTGTGTTTCGGAGTCACCTAGTGCAG”, the binding signal is 8630 fluorescence intensity (a.u.). “CTGCGTTATTTTCATCAACTTCAAACCATCTCCGTTAGCACGGAGTCACCTAGTGCAG”: the binding signal was 8320 fluorescence intensity (a.u.).

For the sequence “CATTTTCTACTTTTTATTTCACGAACCAAATCCCCTGAAACGGAGTCACCTAGTGCAG”, the binding signal was 8960 fluorescence intensity (a.u.). The value for “AGACCCAAACCCCTGCTCATATAGCAGCTCATCTCCATCTCGGAGTCACCTAGTGCAG” was 9290 fluorescence intensity (a.u.). With “TCTCTCTCGCTCCAGTCGCCATCGCCACCCGCGAAAACCGCGGAGTCACCTAGTGCAG”, the binding signal is 9510 fluorescence intensity (a.u.). With “GGTGGAGGAGATTACAACTCTGGTGGCCGTGGTGGTGGCACGGAGTCACCTAGTGCAG”, the binding signal was 8510 fluorescence intensity (a.u.).

Take “CGCCGCCTCGGGCCCAACCGCCGGCCACCGCACGCTGACGCGGAGTCACCTAGTGCAG”: the binding signal is 8500 fluorescence intensity (a.u.).

On to “AGCGCCGGCTTCTTTCTCAATATGTGATTTTCTTTCCTTACGGAGTCACCTAGTGCAG”, for which the binding signal is 9840 fluorescence intensity (a.u.). Next, “CTCTTGGCCTCGCGTGCAGTGCAGACCGCGCCTCCTATAACGGAGTCACCTAGTGCAG”: 8430 fluorescence intensity (a.u.); “TCTTGACTCTCTTTCGCTGTGCCTGTGAGCAACGCTGTTCCGGAGTCACCTAGTGCAG”: 11200 fluorescence intensity (a.u.). “ACCTTCGACGCGGACGCGCCTCTCCGCGAGCGCGTCTTTCCGGAGTCACCTAGTGCAG”: the binding signal was 8730 fluorescence intensity (a.u.). On to “CAACAAATGTATTATTACTATCTCTTTTCTACACGATAAACGGAGTCACCTAGTGCAG”, for which the binding signal was 8210 fluorescence intensity (a.u.).
